# Measured values as given in US9034583B2, “Rapid enzyme-linked immunosorbent assay for detection and identification of pathogens and determination of antimicrobial susceptibility” (priority 2013, dated 2015).
# At least one structure is not confirmed: it was looked up by name or label, or the drawing left a doubt.
# Tests used:
# [1] = tested on: GBS ATCC 12386; assay: Simultaneous identification of GBS and antimicrobial susceptibility, 20-minute incubation (Example 2); assay type: cell-based, Group B Streptococcus (GBS); details: 20-minute incubation at room temperature, ATCC strain
# [2] = tested on: patient isolates GBS 1.12.76; assay: as above; assay type: cell-based, Group B Streptococcus (GBS); details: 20-minute incubation at room temperature, clinical isolate strain
structure (smiles),measurement,setting,value
"CCC[C@@H]1C[C@@H](C(=O)N[C@@H]([C@H]2O[C@H](SC)[C@H](O)[C@@H](O)[C@H]2O)[C@H](C)Cl)N(C)C1 [Clindamycin, clindamycin]",OD450 signal of bound GBS,[1]; 0.2 μg/ml of clindamycin,positive signal
same,OD450 signal of bound GBS,[1]; 2.0 μg/ml of clindamycin,greatly diminished
same,OD450 signal of bound GBS,[2]; 0.2 μg/ml of clindamycin,positive signal
same,OD450 signal of bound GBS,[2]; 2.0 μg/ml of clindamycin,greatly diminished
